Marks after values point to notes of the source that are not given here.
Tested on: C57Bl/6 control mice
Assay: C57Bl/6 control mice, daily p.o. CL2-57 for one week
Format: in vivo, mouse
Conditions: 10 mg/kg daily p.o. one week

With CCOC(=O)c1cccc(NC(=O)c2sc(Cl)cc2S(=O)(=O)N(C)c2ccc(OCC)c(OCC)c2)c1 [CL2-57, ethyl 3-(5-chloro-3-(N-(3,4-diethoxyphenyl)-N-methylsulfamoyl)thiophene-2-carboxamido) benzoate] the “Arachidate (20:0), CL2-57/Vehicle” value (liver free fatty acids) was 3.08**, the “Butyrate/isobutyrate (4:0), CL2-57/Vehicle” value (liver free fatty acids) was 0.71 and the “Caprate (10:0), CL2-57/Vehicle” value (liver free fatty acids) was 1.18. For the same compound, the “Caproate (6:0), CL2-57/Vehicle” value (liver free fatty acids) was 1.49, the “Caprylate (8:0), CL2-57/Vehicle” value (liver free fatty acids) was 1.28 and the “Heptanoate (7:0), CL2-57/Vehicle” value (liver free fatty acids) was 1.00. The “Margarate (17:0), CL2-57/Vehicle” value (liver free fatty acids) was 2.89**, the “Myristate (14:0), CL2-57/Vehicle” value (liver free fatty acids) was 2.67** and the “Nonadecanoate (19:0), CL2-57/Vehicle” value (liver free fatty acids) was 3.11**. For the same compound, the “Palmitate (16:0), CL2-57/Vehicle” value (liver free fatty acids) was 2.90**, the “Pentadecanoate (15:0), CL2-57/Vehicle” value (liver free fatty acids) was 2.93** and the “Stearate (18:0), CL2-57/Vehicle” value (liver free fatty acids) was 2.47**. The “1,5-Anhydroglucitol (1,5-AG), CL2-57/Vehicle” value (liver) was 0.85, the “2,3-Diphosphoglycerate, CL2-57/Vehicle” value (liver) was 0.84 and the “2-Phosphoglycerate, CL2-57/Vehicle” value (liver) was 0.94. The “3-Phosphoglycerate, CL2-57/Vehicle” value (liver) was 0.84, the “Dihydroxyacetone phosphate, CL2-57/Vehicle” value (liver) was 0.75 and the “Fru/glu-1,6-diphosphate, CL2-57/Vehicle” value (liver) was 0.87. For the same compound, the “Fructose 6-phosphate, CL2-57/Vehicle” value (liver) was 1.13, the “Glucose 6-phosphate, CL2-57/Vehicle” value (liver) was 0.71 and the “Glucose, CL2-57/Vehicle” value (liver) was 0.96. For the same compound, the “Glycerate, CL2-57/Vehicle” value (liver) was 1.06, the “Lactate, CL2-57/Vehicle” value (liver) was 0.94 and the “Phosphoenolpyruvate (PEP), CL2-57/Vehicle” value (liver) was 0.90. The “Pyruvate, CL2-57/Vehicle” value (liver) was 0.87, the “5-Dodecenoate (12:1n7), CL2-57/Vehicle” value (plasma free fatty acids) was 1.33 and the “10-Undecenoate (11:1n1), CL2-57/Vehicle” value (plasma free fatty acids) was 1.05. For the same compound, the “(2 or 3) -Decenoate (10:1n7 or n8), CL2-57/Vehicle” value (plasma free fatty acids) was 1.16, the “Arachidate (20:0), CL2-57/Vehicle” value (plasma free fatty acids) was 1.09 and the “Butyrate/isobutyrate (4:0), CL2-57/Vehicle” value (plasma free fatty acids) was 1.32. The “Caprate (10:0), CL2-57/Vehicle” value (plasma free fatty acids) was 1.07, the “Caproate (6:0), CL2-57/Vehicle” value (plasma free fatty acids) was 1.12 and the “Caprylate (8:0), CL2-57/Vehicle” value (plasma free fatty acids) was 0.95. The “Cis-4-decenoate (10:1n6), CL2-57/Vehicle” value (plasma free fatty acids) was 1.00, the “Heptanoate (7:0), CL2-57/Vehicle” value (plasma free fatty acids) was 1.12 and the “Laurate (12:0), CL2-57/Vehicle” value (plasma free fatty acids) was 1.20. The “Margarate (17:0), CL2-57/Vehicle” value (plasma free fatty acids) was 1.10, the “Myristate (14:0), CL2-57/Vehicle” value (plasma free fatty acids) was 1.28 and the “Nonadecanoate (19:0), CL2-57/Vehicle” value (plasma free fatty acids) was 1.22. For the same compound, the “Palmitate (16:0), CL2-57/Vehicle” value (plasma free fatty acids) was 1.15, the “Pentadecanoate (15:0), CL2-57/Vehicle” value (plasma free fatty acids) was 1.07 and the “Stearate (18:0), CL2-57/Vehicle” value (plasma free fatty acids) was 1.23*. For the same compound, the “1,5-AG, CL2-57/Vehicle” value (plasma) was 0.85^†, the “2,3-Diphosphoglycerate, CL2-57/Vehicle” value (plasma) was 1.04 and the “3-Phosphoglycerate, CL2-57/Vehicle” value (plasma) was 0.95. For the same compound, the “Glucose, CL2-57/Vehicle” value (plasma) was 1.00, the “Glycerate, CL2-57/Vehicle” value (plasma) was 1.07 and the “Lactate, CL2-57/Vehicle” value (plasma) was 0.88. For the same compound, the “PEP, CL2-57/Vehicle” value (plasma) was 1.16 and the “Pyruvate, CL2-57/Vehicle” value (plasma) was 0.99.
